Laboratory results taken from publication PMC9684564.
No constants are given. Whether binding was seen depends on the method and setting. Binding seen in cells or lysates may run through a third protein. A yes stands for co-enrichment or nearness to the bait. Other partners may have been found. One block for each binder: values may come before it.

The chains behind the UniProt entries cited, without tags or fusion partners.
UniProt Q14974: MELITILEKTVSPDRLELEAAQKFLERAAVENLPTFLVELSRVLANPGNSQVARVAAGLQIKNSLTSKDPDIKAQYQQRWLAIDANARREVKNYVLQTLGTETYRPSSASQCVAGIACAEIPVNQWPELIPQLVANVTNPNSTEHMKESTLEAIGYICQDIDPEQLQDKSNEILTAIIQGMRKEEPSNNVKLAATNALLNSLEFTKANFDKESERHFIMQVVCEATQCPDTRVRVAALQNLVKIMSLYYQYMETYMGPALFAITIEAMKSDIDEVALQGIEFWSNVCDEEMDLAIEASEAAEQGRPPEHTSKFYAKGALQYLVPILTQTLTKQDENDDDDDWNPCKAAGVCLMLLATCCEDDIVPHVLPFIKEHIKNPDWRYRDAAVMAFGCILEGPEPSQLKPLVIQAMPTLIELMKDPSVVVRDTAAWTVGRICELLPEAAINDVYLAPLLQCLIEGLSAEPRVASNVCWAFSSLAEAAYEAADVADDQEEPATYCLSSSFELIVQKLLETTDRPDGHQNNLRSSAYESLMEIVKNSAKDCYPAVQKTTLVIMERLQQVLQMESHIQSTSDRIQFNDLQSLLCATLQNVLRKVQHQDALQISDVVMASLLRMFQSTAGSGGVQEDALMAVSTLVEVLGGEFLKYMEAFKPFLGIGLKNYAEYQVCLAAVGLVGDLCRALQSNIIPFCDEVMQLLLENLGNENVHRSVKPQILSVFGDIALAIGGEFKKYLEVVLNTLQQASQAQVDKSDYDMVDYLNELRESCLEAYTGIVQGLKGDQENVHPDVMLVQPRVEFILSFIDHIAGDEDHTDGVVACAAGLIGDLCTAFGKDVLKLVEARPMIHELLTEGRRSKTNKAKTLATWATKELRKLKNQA

Molecular target: Karyopherin beta 1 (human (endogenous in hTERT-RPE1, HeLa, WHCO5, KYSE30)) (UniProt Q14974)
Assay: affinity purification with mass spectrometry; endogenous Kpnβ1 precipitated with 50 µg anti-Karyopherin β1 (H-7) agarose-conjugated antibody from 500 µg lysate of hTERT-RPE1, HeLa, WHCO5 or KYSE30 cells; non-denaturing lysis buffer (1% Triton X-100, 120 mM NaCl, 1 mM CaCl2, 25 mM Tris, pH 7.4); 4 °C overnight; no cross-linking; hits present in all three replicates and absent from the IgG isotype controls

B1: Cleavage stimulation factor subunit 1 (protein, UniProt Q05048 1-431)
chain: MYRTKVGLKDRQQLYKLIISQLLYDGYISIANGLINEIKPQSVCAPSEQLLHLIKLGMENDDTAVQYAIGRSDTVAPGTGIDLEFDADVQTMSPEASEYETCYVTSHKGPCRVATYSRDGQLIATGSADASIKILDTERMLAKSAMPIEVMMNETAQQNMENHPVIRTLYDHVDEVTCLAFHPTEQILASGSRDYTLKLFDYSKPSAKRAFKYIQEAEMLRSISFHPSGDFILVGTQHPTLRLYDINTFQCFVSCNPQDQHTDAICSVNYNSSANMYVTGSKDGCIKLWDGVSNRCITTFEKAHDGAEVCSAIFSKNSKYILSSGKDSVAKLWEISTGRTLVRYTGAGLSGRQVHRTQAVFNHTEDYVLLPDERTISLCCWDSRTAERRNLLSLGHNNIVRCIVHSPTNPGFMTCSDDFRARFWYRRSTTD
binding: binds

B3: Paraspeckle component 1 (protein, UniProt Q8WXF1 1-523)
chain: MMLRGNLKQVRIEKNPARLRALESAVGESEPAAAAAMALALAGEPAPPAPAPPEDHPDEEMGFTIDIKSFLKPGEKTYTQRCRLFVGNLPTDITEEDFKRLFERYGEPSEVFINRDRGFGFIRLESRTLAEIAKAELDGTILKSRPLRIRFATHGAALTVKNLSPVVSNELLEQAFSQFGPVEKAVVVVDDRGRATGKGFVEFAAKPPARKALERCGDGAFLLTTTPRPVIVEPMEQFDDEDGLPEKLMQKTQQYHKEREQPPRFAQPGTFEFEYASRWKALDEMEKQQREQVDRNIREAKEKLEAEMEAARHEHQLMLMRQDLMRRQEELRRLEELRNQELQKRKQIQLRHEEEHRRREEEMIRHREQEELRRQQEGFKPNYMENREQEMRMGDMGPRGAINMGDAFSPAPAGNQGPPPMMGMNMNNRATIPGPPMGPGPAMGPEGAANMGTPMMPDNGAVHNDRFPQGPPSQMGSPMGSRTGSETPQAPMSGVGPVSGGPGGFGRGSQGGNFEGPNKRRRY
binding: binds

B7: Serine/arginine-rich splicing factor 3 (protein, UniProt P84103 1-164)
chain: MHRDSCPLDCKVYVGNLGNNGNKTELERAFGYYGPLRSVWVARNPPGFAFVEFEDPRDAADAVRELDGRTLCGCRVRVELSNGEKRSRNRGPPPSWGRRPRDDYRRRSPPPRRRSPRRRSFSRSRSRSLSRDRRRERSLSRERNHKPSRSFSRSRSRSRSNERK
binding: binds

B9: Heterogeneous nuclear ribonucleoprotein A0 (protein, UniProt Q13151 1-305)
chain: MENSQLCKLFIGGLNVQTSESGLRGHFEAFGTLTDCVVVVNPQTKRSRCFGFVTYSNVEEADAAMAASPHAVDGNTVELKRAVSREDSARPGAHAKVKKLFVGGLKGDVAEGDLIEHFSQFGTVEKAEIIADKQSGKKRGFGFVYFQNHDAADKAAVVKFHPIQGHRVEVKKAVPKEDIYSGGGGGGSRSSRGGRGGRGRGGGRDQNGLSKGGGGGYNSYGGYGGGGGGGYNAYGGGGGGSSYGGSDYGNGFGGFGSYSQHQSSYGPMKSGGGGGGGGSSWGGRSNSGPYRGGYGGGGGYGGSSF
binding: binds

B10: Heterogeneous nuclear ribonucleoprotein R (protein, UniProt O43390 1-633)
chain: MANQVNGNAVQLKEEEEPMDTSSVTHTEHYKTLIEAGLPQKVAERLDEIFQTGLVAYVDLDERAIDALREFNEEGALSVLQQFKESDLSHVQNKSAFLCGVMKTYRQREKQGSKVQESTKGPDEAKIKALLERTGYTLDVTTGQRKYGGPPPDSVYSGVQPGIGTEVFVGKIPRDLYEDELVPLFEKAGPIWDLRLMMDPLSGQNRGYAFITFCGKEAAQEAVKLCDSYEIRPGKHLGVCISVANNRLFVGSIPKNKTKENILEEFSKVTEGLVDVILYHQPDDKKKNRGFCFLEYEDHKSAAQARRRLMSGKVKVWGNVVTVEWADPVEEPDPEVMAKVKVLFVRNLATTVTEEILEKSFSEFGKLERVKKLKDYAFVHFEDRGAAVKAMDEMNGKEIEGEEIEIVLAKPPDKKRKERQAARQASRSTAYEDYYYHPPPRMPPPIRGRGRGGGRGGYGYPPDYYGYEDYYDDYYGYDYHDYRGGYEDPYYGYDDGYAVRGRGGGRGGRGAPPPPRGRGAPPPRGRAGYSQRGAPLGPPRGSRGGRGGPAQQQRGRGSRGSRGNRGGNVGGKRKADGYNQPDSKRRQTNNQQNWGSQPIAQQPLQQGGDYSGNYGYNNDNQEFYQDTYGQQWK
binding: binds

B11: Cleavage and polyadenylation specificity factor subunit 7 (protein, UniProt Q8N684 1-471)
chain: MSEGVDLIDIYADEEFNQDPEFNNTDQIDLYDDVLTATSQPSDDRSSSTEPPPPVRQEPSPKPNNKTPAILYTYSGLRNRRAAVYVGSFSWWTTDQQLIQVIRSIGVYDVVELKFAENRANGQSKGYAEVVVASENSVHKLLELLPGKVLNGEKVDVRPATRQNLSQFEAQARKRECVRVPRGGIPPRAHSRDSSDSADGRATPSENLVPSSARVDKPPSVLPYFNRPPSALPLMGLPPPPIPPPPPLSSSFGVPPPPPGIHYQHLMPPPPRLPPHLAVPPPGAIPPALHLNPAFFPPPNATVGPPPDTYMKASAPYNHHGSRDSGPPPSTVSEAEFEDIMKRNRAISSSAISKAVSGASAGDYSDAIETLLTAIAVIKQSRVANDERCRVLISSLKDCLHGIEAKSYSVGASGSSSRKRHRSRERSPSRSRESSRRHRDLLHNEDRHDDYFQERNREHERHRDRERDRHH
binding: binds

The remaining lines, values ahead:

binding: binds
B2: Pre-mRNA 3-end-processing factor FIP1 (protein, UniProt Q6UN15 1-594)
chain: MSAGEVERLVSELSGGTGGDEEEEWLYGGPWDVHVHSDLAKDLDENEVERPEEENASANPPSGIEDETAENGVPKPKVTETEDDSDSDSDDDEDDVHVTIGDIKTGAPQYGSYGTAPVNLNIKTGGRVYGTTGTKVKGVDLDAPGSINGVPLLEVDLDSFEDKPWRKPGADLSDYFNYGFNEDTWKAYCEKQKRIRMGLEVIPVTSTTNKITAEDCTMEVTPGAEIQDGRFNLFKVQQGRTGNSEKETALPSTKAEFTSPPSLFKTGLPPSRNSTSSQSQTSTASRKANSSVGKWQDRYGRAESPDLRRLPGAIDVIGQTITISRVEGRRRANENSNIQVLSERSATEVDNNFSKPPPFFPPGAPPTHLPPPPFLPPPPTVSTAPPLIPPPGFPPPPGAPPPSLIPTIESGHSSGYDSRSARAFPYGNVAFPHLPGSAPSWPSLVDTSKQWDYYARREKDRDRERDRDRERDRDRDRERERTRERERERDHSPTPSVFNSDEERYRYREYAERGYERHRASREKEERHRERRHREKEETRHKSSRSNSRRRHESEEGDSHRRHKHKKSKRSKEGKEAGSEPAPEQESTEATPAE

binding: binds
B4: UPF0568 protein C14orf166 (protein, UniProt Q9Y224 1-244)
chain: MFRRKLTALDYHNPAGFNCKDETEFRNFIVWLEDQKIRHYKIEDRGNLRNIHSSDWPKFFEKYLRDVNCPFKIQDRQEAIDWLLGLAVRLEYGDNAEKYKDLVPDNSKTADNATKNAEPLINLDVNNPDFKAGVMALANLLQIQRHDDYLVMLKAIRILVQERLTQDAVAKANQTKEGLPVALDKHILGFDTGDAVLNEAAQILRLLHIEELRELQTKINEAIVAVQAIIADPKTDHRLGKVGR

binding: binds
B5: Heterogeneous nuclear ribonucleoprotein H3 (protein, UniProt P31942 1-346)
chain: MDWVMKHNGPNDASDGTVRLRGLPFGCSKEEIVQFFQGLEIVPNGITLTMDYQGRSTGEAFVQFASKEIAENALGKHKERIGHRYIEIFRSSRSEIKGFYDPPRRLLGQRPGPYDRPIGGRGGYYGAGRGSMYDRMRRGGDGYDGGYGGFDDYGGYNNYGYGNDGFDDRMRDGRGMGGHGYGGAGDASSGFHGGHFVHMRGLPFRATENDIANFFSPLNPIRVHIDIGADGRATGEADVEFVTHEDAVAAMSKDKNNMQHRYIELFLNSTPGGGSGMGGSGMGGYGRDGMDNQGGYGSVGRMGMGNNYSGGYGTPDGLGGYGRGGGGSGGYYGQGGMSGGGWRGMY

binding: binds
B6: Cell division cycle and apoptosis regulator protein 1 (protein, UniProt Q8IX12 1-1150)
chain: MAQFGGQKNPPWATQFTATAVSQPAALGVQQPSLLGASPTIYTQQTALAAAGLTTQTPANYQLTQTAALQQQAAAAAAALQQQYSQPQQALYSVQQQLQQPQQTLLTQPAVALPTSLSLSTPQPTAQITVSYPTPRSSQQQTQPQKQRVFTGVVTKLHDTFGFVDEDVFFQLSAVKGKTPQVGDRVLVEATYNPNMPFKWNAQRIQTLPNQNQSQTQPLLKTPPAVLQPIAPQTTFGVQTQPQPQSLLQAQISAASITPLLQTQPQPLLQQPQQKAGLLQPPVRIVSQPQPARRLDPPSRFSGRNDRGDQVPNRKDDRSRERERERRRSRERSPQRKRSRERSPRRERERSPRRVRRVVPRYTVQFSKFSLDCPSCDMMELRRRYQNLYIPSDFFDAQFTWVDAFPLSRPFQLGNYCNFYVMHREVESLEKNMAILDPPDADHLYSAKVMLMASPSMEDLYHKSCALAEDPQELRDGFQHPARLVKFLVGMKGKDEAMAIGGHWSPSLDGPDPEKDPSVLIKTAIRCCKALTGIDLSVCTQWYRFAEIRYHRPEETHKGRTVPAHVETVVLFFPDVWHCLPTRSEWETLSRGYKQQLVEKLQGERKEADGEQDEEEKDDGEAKEISTPTHWSKLDPKTMKVNDLRKELESRALSSKGLKSQLIARLTKQLKVEEQKEEQKELEKSEKEEDEDDDRKSEDDKEEEERKRQEEIERQRRERRYILPDEPAIIVHPNWAAKSGKFDCSIMSLSVLLDYRLEDNKEHSFEVSLFAELFNEMLQRDFGVRIYKSLLSLPEKEDKKEKDKKSKKDERKDKKEERDDETDEPKPKRRKSGDDKDKKEDRDERKKEDKRKDDSKDDDETEEDNNQDEYDPMEAEEAEDEEDDRDEEEMTKRDDKRDINRYCKERPSKDKEKEKTQMITINRDLLMAFVYFDQSHCGYLLEKDLEEILYTLGLHLSRAQVKKLLNKVVLRESCFYRKLTDTSKDEENHEESESLQEDMLGNRLLLPTPTVKQESKDVEENVGLIVYNGAMVDVGSLLQKLEKSEKVRAEVEQKLQLLEEKTDEDEKTILNLENSNKSLSGELREVKKDLSQLQENLKISENMNLQFENQMNKTIRNLSTVMDEIHTVLKKDNVKNEDKDQKSKENGASV

binding: binds
B8: Nuclear pore complex protein Nup93 (protein, UniProt Q8N1F7 1-819)
chain: MDTEGFGELLQQAEQLAAETEGISELPHVERNLQEIQQAGERLRSRTLTRTSQETADVKASVLLGSRGLDISHISQRLESLSAATTFEPLEPVKDTDIQGFLKNEKDNALLSAIEESRKRTFGMAEEYHRESMLVEWEQVKQRILHTLLASGEDALDFTQESEPSYISDVGPPGRSSLDNIEMAYARQIYIYNEKIVNGHLQPNLVDLCASVAELDDKSISDMWTMVKQMTDVLLTPATDALKNRSSVEVRMEFVRQALAYLEQSYKNYTLVTVFGNLHQAQLGGVPGTYQLVRSFLNIKLPAPLPGLQDGEVEGHPVWALIYYCMRCGDLLAASQVVNRAQHQLGEFKTWFQEYMNSKDRRLSPATENKLRLHYRRALRNNTDPYKRAVYCIIGRCDVTDNQSEVADKTEDYLWLKLNQVCFDDDGTSSPQDRLTLSQFQKQLLEDYGESHFTVNQQPFLYFQVLFLTAQFEAAVAFLFRMERLRCHAVHVALVLFELKLLLKSSGQSAQLLSHEPGDPPCLRRLNFVRLLMLYTRKFESTDPREALQYFYFLRDEKDSQGENMFLRCVSELVIESREFDMILGKLENDGSRKPGVIDKFTSDTKPIINKVASVAENKGLFEEAAKLYDLAKNADKVLELMNKLLSPVVPQISAPQSNKERLKNMALSIAERYRAQGISANKFVDSTFYLLLDLITFFDEYHSGHIDRAFDIIERLKLVPLNQESVEERVAAFRNFSDEIRHNLSEVLLATMNILFTQFKRLKGTSPSSSSRPQRVIEDRDSQLRSQARTLITFAGMIPYRTSGDTNARLVQMEVLMN
